Test results as given in PubChem BioAssay AID1508615 (Milbrandt Lab, Department of Genetics, Washington …, 2020).
In all, about 1,600 compounds went through this assay and about 20 (1%) were called active.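 The calls were made as follows: active = ratio of uncleaved NAD to its breakdown product ADP-ribose above 4, meaning the enzyme was inhibited; inactive = the rest.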 This is one part of the list.

Chains of the proteins cited; added tags and fusions are not shown. Lines headed by an entry give the natural chain unless they say otherwise; changes in a name come on top.
UniProt Q6SZW1: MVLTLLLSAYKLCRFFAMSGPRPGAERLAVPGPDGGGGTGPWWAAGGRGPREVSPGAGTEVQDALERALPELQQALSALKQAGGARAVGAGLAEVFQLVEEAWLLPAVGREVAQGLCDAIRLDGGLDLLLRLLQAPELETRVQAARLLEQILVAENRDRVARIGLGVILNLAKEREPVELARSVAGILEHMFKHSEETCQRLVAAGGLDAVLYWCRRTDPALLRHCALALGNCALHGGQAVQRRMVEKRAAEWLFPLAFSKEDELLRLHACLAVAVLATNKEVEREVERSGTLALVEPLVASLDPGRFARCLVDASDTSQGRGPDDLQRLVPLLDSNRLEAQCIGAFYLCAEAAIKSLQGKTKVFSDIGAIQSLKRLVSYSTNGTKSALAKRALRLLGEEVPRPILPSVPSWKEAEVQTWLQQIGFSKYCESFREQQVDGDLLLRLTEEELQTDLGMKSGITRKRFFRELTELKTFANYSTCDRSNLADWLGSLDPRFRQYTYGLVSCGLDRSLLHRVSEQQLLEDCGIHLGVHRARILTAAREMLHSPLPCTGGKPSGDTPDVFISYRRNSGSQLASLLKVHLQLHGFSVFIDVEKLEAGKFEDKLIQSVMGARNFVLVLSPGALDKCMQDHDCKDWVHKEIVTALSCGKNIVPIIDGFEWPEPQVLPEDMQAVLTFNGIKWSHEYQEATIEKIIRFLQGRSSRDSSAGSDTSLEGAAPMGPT

Target: NAD(+) hydrolase SARM1 (Homo sapiens) (UniProt Q6SZW1)
Test: inhibition of SAM-TIR NAD hydrolysis to ADPR – cell lysate, HPLC readout, primary screen (AID 1508615);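 also: substrate NAD at 5 µM with 60 min at 37 °C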
Details: HEK293T SAM-TIR lysate, NAD/ADPR ratio by HPLC; at 5 µM; hits give high values

NAD/ADPR ratio, active:
Cc1ccc2c(c1)c1ccc3c(c1n2C)C(=O)C=CC3=O 5.6

NAD/ADPR ratio, inactive:
COC(=O)C1=C(C)NC(C)=C(C(=O)OC)C(N2C(=O)CCC2=O)C1 (stereo unspecified) 3, Cc1c(O)ccc2c(O)c(NC(=O)c3ccc4c(c3)CCC(C)(C)O4)c(=O)oc12 3, O=C(Nc1nnc(C(F)(F)F)s1)c1c(F)cccc1F 3, CN1C=C/C(=C\[N+](=O)[O-])N(C)C1=O 3, CN(C)CCC1c2ccc(Cl)cc2CCc2cccnc21 (stereo unspecified) (tested in a mixture with another compound) 3, CN1C(=O)c2ccccc2Cc2c(NCc3ccccc3)ncnc21 3, Nc1nc(N)c(N=Nc2ccc(S(N)(=O)=O)cc2)c(=O)[nH]1 3, O=C(Nc1ccccc1)C1=C(Nc2ccccc2)CSC1 3, O=c1cc[nH]c2c(Cl)cccc12 3, CC(C)(C)C1=NN=C2c3ccccc3C(=O)C21 (stereo unspecified) 3, CN(C)Cc1c[nH]c2nccnc12 3, Cc1c(O)cnc2nn(-c3ccccc3)c(=N)n12 3, Brc1csc2ncccc12 3, c1ccc(-c2nc3ccccc3s2)nc1 3, C1CCc2nc3c(nc2C1)CCCC3 3, O=[N+]([O-])c1ccc(Sc2ncccn2)c([N+](=O)[O-])c1 3, COc1cc(/C=C2\CCOC2=O)cc(OC)c1OC 3, Cn1c(=O)c2c(nc(OCCc3ccccc3)n2C)n(C)c1=O 3, COC1OC2COC(c3ccccc3)OC2C(=O)C1NC(=O)c1ccccc1 (stereo unspecified) 3, CNC(=O)OCN1C(=O)C2CC=CCC2C1=O (stereo unspecified) 3, Cc1ccc(NC(=O)N2CCN(C)CC2)cc1NC(=O)N1CCN(C)CC1 3, Cn1c(=O)c2c(ncn2CCOC(=O)C(C)(C)Oc2ccc(Cl)cc2)n(C)c1=O 3, O=c1cc(-c2ccc(Cl)cc2)[nH]c2ccccc12 3, Cc1c(Cc2ccccc2)[n+](=O)c2ccccc2n1[O-] 3, Cc1nc2ccc(Cl)cn2c1[N+](=O)[O-] 3, Cc1cc(C)n(C(N)=NC(=O)c2ccccc2)n1 3, Cc1ccc2c(c1)sc1nncn12 3, Cc1cc(=O)c2c(o1)C(=O)c1occc1C2=O 3, CN1CCC(=C2c3ccccc3C(O)c3ccccc32)CC1 (stereo unspecified) 3, c1ccc(NCCSc2nc3ccccc3s2)cc1 3, CCN(CC)c1ccc(/C=C/c2cc(-c3ccccc3)c3ccccc3n2)cc1 3, c1ccc2nc(NN=C3CCCCC3)ccc2c1 3, CCOc1ccc(NC(=O)Nc2cc(C(C)C)c(O)cc2C)cc1 3, C#CCNc1ccc(C(=O)OCC)cc1 3, O=C1C=C(c2ccccc2)OC(=O)C1C(=O)c1ccccc1 (stereo unspecified) 3, CNc1ncn(-c2c(C)cccc2C)c(=O)n1 3, O=[N+]([O-])c1cc(F)c2cccnc2c1O 3, Nc1cc2c3c(cccc3c1)C(=O)N(CCN1CCCC1)C2=O 3, Cc1ccc(S(=O)(=O)N2CC=C(N)N2)cc1 3, COc1ccc(-c2cc(-c3ccccc3)c(-c3ccccc3)nn2)cc1 3, Cc1ccncc1C(N)=O 3, CCOC(=O)c1csc(-c2ccc(COC(=O)c3ccccc3)o2)n1 3, CC(C)=CCC/C(C)=C/C(N)=O 3, CCOP(=O)(OCC)/C(C#N)=C/c1ccc([N+](=O)[O-])cc1 3, c1ccc(-c2nnc3oc(-c4cccs4)nn23)cc1 3, C=C(C)CN1C(=O)C(C)S/C1=N\N=C1/SCC(=O)N1C (stereo unspecified) 3, O=C(CC1C=Cc2ccccc2N1C(=O)c1ccccc1)c1ccccc1 (stereo unspecified) 3, S=c1[nH]c2ccccc2c2ccccc12 3, Cc1cc(=O)n2[nH]c(-c3ccc(C(C)(C)C)cc3)cc2n1 3, CCc1nc(NC(C)(C)C)c2cnn(-c3ccccc3)c2n1 3, O=C(O)c1ccccc1C(=O)Nc1cccc([N+](=O)[O-])c1 3, Nc1ccccc1Sc1cc(Cl)nnc1Cl 3, Clc1c(Cl)c(Cl)c2n[nH]nc2c1Cl 3, c1ccc2c(c1)nnn2-c1ccncc1 3, CC(=O)Nc1ccc2cc3ccc(NC(C)=O)cc3nc2c1 3, Cc1nnsc1C(=O)NCc1c(F)cccc1Cl 3, NCC(=O)Nc1ccc(Cl)cc1C(=O)c1ccc[nH]1 3, O=C(O)c1cc(N2C(=O)C=CC2=O)cc(N2C(=O)C=CC2=O)c1 3, CCOc1ccc(/C=C2\CCc3ccccc3C2=O)cc1 3, CSc1ncc2[nH]c(C(O)c3ccccc3)nc2n1 (stereo unspecified) 3, Oc1ccc2c(ccc3[nH]cnc32)c1 3, CCOC(=O)Nc1ccc2nc(-c3cscn3)[nH]c2c1 3, CCOC(=O)c1c[nH][nH]c1=O 3, Oc1ccc(Cc2ccccc2Cl)c(O)c1 3, O=C(Nc1ccc(F)cc1)Oc1ccc[nH]c1=O 3, c1ccc(-n2nnnc2-c2cccc3ccccc23)cc1 3, Cn1cnc([N+](=O)[O-])c1S(=O)(=O)Oc1cccc2ccccc12 3, CCCCNCC1CCCO1 (stereo unspecified) 3, Oc1ccccc1-c1nnco1 3, O=C1c2ccccc2C(=O)c2c(Nc3ccc(CCO)cc3)ccc(O)c21 3, Oc1c(CN2CCN(c3ccccc3)CC2)cc(Br)c2cccnc12 3, CC(C)N(C(=O)c1cccc([N+](=O)[O-])c1)C(C)C 3, Nc1ncnc2c1ncn2C1OC(CO)C(O)C1N (stereo unspecified) 3, Oc1c(Cl)cc(Cl)cc1C1Nc2ccccc2-n2cccc21 (stereo unspecified) 3, CCC(C)(C)c1ccc(Oc2cccc(C(=O)O)c2)cc1 3
